# Primary screen of a compound library

By UniProt entry, the sequences of proteins in these tests, tags left out. Residues count along the entry.
UniProt I6X8D2, whole entry: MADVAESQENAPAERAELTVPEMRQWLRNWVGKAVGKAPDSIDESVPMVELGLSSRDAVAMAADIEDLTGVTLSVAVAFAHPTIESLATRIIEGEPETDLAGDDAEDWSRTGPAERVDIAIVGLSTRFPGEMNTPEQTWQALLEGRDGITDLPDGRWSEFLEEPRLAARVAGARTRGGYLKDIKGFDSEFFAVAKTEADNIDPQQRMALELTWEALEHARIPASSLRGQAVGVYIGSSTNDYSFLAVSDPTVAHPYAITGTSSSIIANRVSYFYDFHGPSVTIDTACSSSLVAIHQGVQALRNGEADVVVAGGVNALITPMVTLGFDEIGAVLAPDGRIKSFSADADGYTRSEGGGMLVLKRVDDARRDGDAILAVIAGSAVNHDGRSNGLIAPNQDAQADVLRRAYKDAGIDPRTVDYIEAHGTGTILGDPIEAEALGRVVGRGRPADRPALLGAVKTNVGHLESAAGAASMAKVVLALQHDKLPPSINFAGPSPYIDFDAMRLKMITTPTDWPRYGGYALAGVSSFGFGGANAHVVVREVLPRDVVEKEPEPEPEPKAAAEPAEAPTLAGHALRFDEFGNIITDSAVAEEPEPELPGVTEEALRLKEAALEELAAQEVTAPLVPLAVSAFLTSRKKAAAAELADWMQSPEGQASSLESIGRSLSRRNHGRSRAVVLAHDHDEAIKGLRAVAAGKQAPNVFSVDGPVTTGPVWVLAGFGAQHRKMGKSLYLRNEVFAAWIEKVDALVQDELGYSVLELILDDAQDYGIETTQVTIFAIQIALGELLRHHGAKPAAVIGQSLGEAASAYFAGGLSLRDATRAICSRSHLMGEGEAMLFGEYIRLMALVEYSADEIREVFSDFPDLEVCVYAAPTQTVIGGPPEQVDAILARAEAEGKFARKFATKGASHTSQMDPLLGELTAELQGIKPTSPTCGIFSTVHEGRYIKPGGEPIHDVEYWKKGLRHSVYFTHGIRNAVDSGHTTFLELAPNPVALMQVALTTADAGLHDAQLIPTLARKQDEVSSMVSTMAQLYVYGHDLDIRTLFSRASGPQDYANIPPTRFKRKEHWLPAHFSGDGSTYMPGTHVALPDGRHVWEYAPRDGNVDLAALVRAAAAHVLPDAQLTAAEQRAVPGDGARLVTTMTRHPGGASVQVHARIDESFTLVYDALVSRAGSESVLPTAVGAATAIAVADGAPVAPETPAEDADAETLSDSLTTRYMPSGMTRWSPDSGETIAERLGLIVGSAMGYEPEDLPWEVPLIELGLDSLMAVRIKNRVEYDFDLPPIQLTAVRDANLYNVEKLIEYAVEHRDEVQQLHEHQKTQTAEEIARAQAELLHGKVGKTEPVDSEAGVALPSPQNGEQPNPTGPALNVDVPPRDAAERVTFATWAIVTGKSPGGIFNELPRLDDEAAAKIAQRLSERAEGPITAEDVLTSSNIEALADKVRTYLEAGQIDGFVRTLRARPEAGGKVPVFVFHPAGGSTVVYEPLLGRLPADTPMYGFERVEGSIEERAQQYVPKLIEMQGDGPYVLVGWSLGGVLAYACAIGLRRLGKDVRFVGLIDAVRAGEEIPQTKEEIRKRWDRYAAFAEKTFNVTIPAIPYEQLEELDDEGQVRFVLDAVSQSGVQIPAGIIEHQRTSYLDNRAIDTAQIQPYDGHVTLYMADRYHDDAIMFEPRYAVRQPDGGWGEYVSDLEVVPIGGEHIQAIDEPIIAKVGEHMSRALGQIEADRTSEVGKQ
UniProt P9WNZ1, whole entry: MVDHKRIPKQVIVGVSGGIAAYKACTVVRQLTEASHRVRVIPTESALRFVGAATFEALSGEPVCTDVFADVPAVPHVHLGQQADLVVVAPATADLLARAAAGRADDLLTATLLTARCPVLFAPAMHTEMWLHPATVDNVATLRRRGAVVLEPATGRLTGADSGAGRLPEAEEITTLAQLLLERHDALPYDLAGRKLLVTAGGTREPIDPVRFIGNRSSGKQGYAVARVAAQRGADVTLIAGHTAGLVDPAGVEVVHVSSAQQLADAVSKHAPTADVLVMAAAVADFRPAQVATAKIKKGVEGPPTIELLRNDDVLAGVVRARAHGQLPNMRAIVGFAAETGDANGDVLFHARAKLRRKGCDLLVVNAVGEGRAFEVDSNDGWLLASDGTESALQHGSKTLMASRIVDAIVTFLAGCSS
UniProt Q8IDJ8, 1-583: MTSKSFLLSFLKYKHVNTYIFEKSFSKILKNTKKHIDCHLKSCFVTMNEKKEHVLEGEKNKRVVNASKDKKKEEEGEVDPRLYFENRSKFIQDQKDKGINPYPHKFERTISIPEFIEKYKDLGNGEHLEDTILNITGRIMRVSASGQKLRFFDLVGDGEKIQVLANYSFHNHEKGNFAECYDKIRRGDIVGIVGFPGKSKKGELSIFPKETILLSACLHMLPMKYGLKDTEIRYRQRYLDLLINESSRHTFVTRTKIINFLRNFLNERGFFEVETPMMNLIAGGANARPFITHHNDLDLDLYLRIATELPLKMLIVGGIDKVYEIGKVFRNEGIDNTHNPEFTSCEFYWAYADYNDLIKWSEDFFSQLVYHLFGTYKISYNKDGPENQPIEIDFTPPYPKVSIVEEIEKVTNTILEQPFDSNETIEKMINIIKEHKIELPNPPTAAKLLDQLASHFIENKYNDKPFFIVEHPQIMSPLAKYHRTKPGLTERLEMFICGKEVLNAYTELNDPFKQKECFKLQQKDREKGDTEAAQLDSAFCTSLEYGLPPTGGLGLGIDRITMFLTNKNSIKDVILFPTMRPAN
UniProt Q4DA54, 1-478: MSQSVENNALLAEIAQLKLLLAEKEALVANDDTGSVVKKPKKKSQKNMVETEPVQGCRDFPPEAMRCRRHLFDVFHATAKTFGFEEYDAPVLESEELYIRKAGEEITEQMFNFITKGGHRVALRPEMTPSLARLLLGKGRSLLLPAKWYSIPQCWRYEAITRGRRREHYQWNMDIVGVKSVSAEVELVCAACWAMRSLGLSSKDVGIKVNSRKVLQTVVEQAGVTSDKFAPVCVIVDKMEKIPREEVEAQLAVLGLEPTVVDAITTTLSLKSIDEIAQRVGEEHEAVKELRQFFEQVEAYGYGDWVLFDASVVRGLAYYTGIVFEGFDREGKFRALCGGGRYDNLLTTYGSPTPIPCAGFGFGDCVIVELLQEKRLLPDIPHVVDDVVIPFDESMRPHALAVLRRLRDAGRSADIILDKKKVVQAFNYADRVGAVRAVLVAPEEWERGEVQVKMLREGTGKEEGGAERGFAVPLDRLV

Pks13 thioesterase: 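Polyketide synthase Pks13, Mycobacterium tuberculosis (UniProt I6X8D2). Enzyme assay of the thioesterase domain of polyketide synthase 13; the read-out is not stated. Concentration: 30 µM. The record gives no direction; the compounds picked for IC50 retests had high values, so higher reads as stronger inhibition. Size under these conditions: about 67,000 compounds, about 300 of them at 50% or above in at least one test.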
CoaBC: 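Enzyme assay of CoaBC with a phosphate dye (Biomol Green) read at 650 nm. Target: Coenzyme A biosynthesis protein CoaBC, Mycobacterium tuberculosis (UniProt P9WNZ1). Tested at 30 µM. Direction is inferred from only a few compounds that gave an IC50; most scored high, so higher reads as stronger inhibition. Most strong results did not repeat in a second test. Size under these conditions: about 67,000 compounds, about 40 of them at 50% or above in at least one test.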
PfKRS1: 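Lysine-tRNA ligase, Plasmodium falciparum 3D7 (UniProt Q8IDJ8). Enzyme assay of the cytosolic lysyl-tRNA synthetase in 384-well plates, read by luminescence. Tested at 30 µM. Higher reads as stronger inhibition, judged from the few compounds that gave an IC50. Of about 69,000 compounds tested this way, about 49 (0.071%) reached 50% or more in at least one test.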
TcHisRS: 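Histidine-tRNA ligase, Trypanosoma cruzi CL Brener (UniProt Q4DA54). Enzyme assay of histidyl-tRNA synthetase; the read-out is not stated. Tested at 30 µM. Direction is inferred from retests: higher values go with stronger inhibition. Of about 69,000 compounds tested this way, about 31 (0.045%) reached 50% or more in at least one test.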

Results are given as percent effect.
The record does not define 0% and 100%; most values in the screen are far below 50% and negative numbers occur (in some assays of this library far below -100).
This is an unselected part of the compounds tested.

* CC[C@@H](C)[C@@H](N)C(=O)Nc1cccc(-c2cnc(NCCO)nc2)c1 | Pks13 thioesterase: 6.079%; CoaBC: 0.8434%; PfKRS1: 1.983%; TcHisRS: -1.13%
* CN1CCN(C(=O)c2[nH]nnc2Nc2ccccc2F)CC1 | Pks13 thioesterase: -91.34%; CoaBC: 2.658%; PfKRS1: 7.624%; TcHisRS: 7.453%
* CCC(CNC(=O)CNC(C)=O)Oc1cccc(F)c1 (centres unmarked) | Pks13 thioesterase: -7.545%; CoaBC: -0.3659%; PfKRS1: 0.5808%; TcHisRS: 4.217%
* Cn1ccnc1CNCC1CCCN1c1cccnn1 (centres unmarked) | Pks13 thioesterase: -8.036%; CoaBC: 3.636%; PfKRS1: 1.476%; TcHisRS: 5.187%
* Cc1csc(CNC(=O)Cc2ccc3c(c2)OCCO3)n1 | Pks13 thioesterase: 29.8%; CoaBC: 1.512%; PfKRS1: 11.03%; TcHisRS: 0%
* CCO[C@H]1CC[C@H]2[C@H]1OCCN2CCOCc1ccccc1 | Pks13 thioesterase: -5.898%; CoaBC: 3.448%; PfKRS1: -2.668%; TcHisRS: -3.093%
* Cn1ccc2c(-c3cc(N4CCCCC4)ncn3)ccnc21 | Pks13 thioesterase: 25.53%; CoaBC: -2.184%; PfKRS1: -0.9861%; TcHisRS: 18.81%
* OCCc1cc(CC2(NCc3ccncc3)COC2)no1 | Pks13 thioesterase: -24.49%; CoaBC: 3.548%; PfKRS1: 10.5%; TcHisRS: 3.483%
* CN(CC(N)=O)C(=O)C1Cc2cc(Cl)ccc2O1 (centres unmarked) | Pks13 thioesterase: -14.82%; CoaBC: 3.255%; PfKRS1: 4.937%; TcHisRS: 13.99%
* Cc1nn(C)c(NC(=O)C2SCCc3ccccc32)c1C (centres unmarked) | Pks13 thioesterase: -30.26%; CoaBC: 3.171%; PfKRS1: 2.433%; TcHisRS: 6.494%
* CSCC(=O)N(C)Cc1ccccc1 | Pks13 thioesterase: -1.171%; CoaBC: -10.51%; PfKRS1: 4.055%; TcHisRS: -15%
* Cc1cccc(CN2C[C@@H]3COC[C@]3(COCC(=O)N(C)C)C2)n1 | Pks13 thioesterase: -18.03%; CoaBC: 1.728%; PfKRS1: -0.926%; TcHisRS: 1.869%
* COCCN(CCC#N)S(=O)(=O)c1ccc(F)cc1F | Pks13 thioesterase: -14.06%; CoaBC: 1.815%; PfKRS1: 2.681%; TcHisRS: 3.261%
* O=C(CC(F)(F)F)N1CCC2(CCCN(c3nncs3)C2)C1 (centres unmarked) | CoaBC: 0.2463%; PfKRS1: 7.263%; TcHisRS: 6.186%
* O=C(Nc1cnc(Oc2ccccc2)nc1)C1CC1 | Pks13 thioesterase: -24.8%; CoaBC: 4.44%; PfKRS1: 3.18%; TcHisRS: 2.062%
* CCc1nc(C2CCCN2Cc2ncc(C)c(OC)c2C)no1 (centres unmarked) | Pks13 thioesterase: -37.3%; CoaBC: 2.166%; PfKRS1: -0.246%; TcHisRS: 3.867%
* CNC(=O)[C@H]1CO[C@H]2CCN(Cc3ccc4ccccc4n3)C[C@H]2C1 | Pks13 thioesterase: -9.758%; CoaBC: 2.828%; PfKRS1: 4.995%; TcHisRS: 3.867%
* COc1ccccc1CC1CCCN(CC(N)=O)C1 (centres unmarked) | Pks13 thioesterase: -19.69%; CoaBC: 4.359%; PfKRS1: 2.222%; TcHisRS: -0.3774%
* c1csc(-c2nc(CNC3CCc4ncnn4C3)cs2)c1 (centres unmarked) | Pks13 thioesterase: -10.52%; CoaBC: 1.295%; PfKRS1: 3.235%; TcHisRS: 3.053%
* CC(C)(C)CCN1CCCC(Cn2cc(CCO)nn2)C1 (centres unmarked) | Pks13 thioesterase: -3.994%; CoaBC: -0.7937%; PfKRS1: -0.7812%; TcHisRS: 3.061%

Once more, the final 2:

- c1csc(-c2nc(CNC3CCc4ncnn4C3)cs2)c1 (centres unmarked) : Pks13 thioesterase: -10.52%; CoaBC: 1.295%; PfKRS1: 3.235%; TcHisRS: 3.053%
- CC(C)(C)CCN1CCCC(Cn2cc(CCO)nn2)C1 (centres unmarked) : Pks13 thioesterase: -3.994%; CoaBC: -0.7937%; PfKRS1: -0.7812%; TcHisRS: 3.061%

Source: ChEMBL document CHEMBL3988442, “University of Dundee, Small-Polar-MMV Screening Library” (2021).